# Data published in PubChem BioAssay (EPA / NIEHS).
# Protein sequences, listed by entry. Tags and fused reporters are not part of them. Lines headed by an entry give the natural chain unless they say otherwise; changes in a name come on top.
# UniProt P10276, whole entry, looked up: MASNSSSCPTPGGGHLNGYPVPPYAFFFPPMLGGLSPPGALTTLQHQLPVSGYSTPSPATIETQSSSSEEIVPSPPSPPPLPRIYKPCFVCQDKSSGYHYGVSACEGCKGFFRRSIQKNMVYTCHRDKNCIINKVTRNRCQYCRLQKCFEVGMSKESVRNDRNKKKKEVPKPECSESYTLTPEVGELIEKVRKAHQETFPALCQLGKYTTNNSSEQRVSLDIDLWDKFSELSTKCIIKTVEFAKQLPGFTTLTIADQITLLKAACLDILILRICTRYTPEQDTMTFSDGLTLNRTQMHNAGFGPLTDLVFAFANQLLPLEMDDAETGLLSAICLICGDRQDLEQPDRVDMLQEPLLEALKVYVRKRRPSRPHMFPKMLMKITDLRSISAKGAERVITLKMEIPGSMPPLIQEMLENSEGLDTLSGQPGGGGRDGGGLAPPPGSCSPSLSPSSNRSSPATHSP
# UniProt P13631, whole entry, looked up: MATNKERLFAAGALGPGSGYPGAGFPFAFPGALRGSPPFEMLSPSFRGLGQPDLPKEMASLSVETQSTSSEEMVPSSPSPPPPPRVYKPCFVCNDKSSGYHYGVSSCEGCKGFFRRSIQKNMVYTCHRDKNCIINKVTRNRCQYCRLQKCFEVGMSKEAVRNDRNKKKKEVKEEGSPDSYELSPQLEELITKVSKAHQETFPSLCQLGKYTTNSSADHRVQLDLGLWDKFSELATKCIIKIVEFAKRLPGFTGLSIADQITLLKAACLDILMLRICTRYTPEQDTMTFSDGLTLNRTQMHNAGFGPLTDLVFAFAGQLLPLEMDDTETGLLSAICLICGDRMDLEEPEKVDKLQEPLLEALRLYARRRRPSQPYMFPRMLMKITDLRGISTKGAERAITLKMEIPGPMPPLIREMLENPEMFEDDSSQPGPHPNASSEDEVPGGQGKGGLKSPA
# UniProt Q92753: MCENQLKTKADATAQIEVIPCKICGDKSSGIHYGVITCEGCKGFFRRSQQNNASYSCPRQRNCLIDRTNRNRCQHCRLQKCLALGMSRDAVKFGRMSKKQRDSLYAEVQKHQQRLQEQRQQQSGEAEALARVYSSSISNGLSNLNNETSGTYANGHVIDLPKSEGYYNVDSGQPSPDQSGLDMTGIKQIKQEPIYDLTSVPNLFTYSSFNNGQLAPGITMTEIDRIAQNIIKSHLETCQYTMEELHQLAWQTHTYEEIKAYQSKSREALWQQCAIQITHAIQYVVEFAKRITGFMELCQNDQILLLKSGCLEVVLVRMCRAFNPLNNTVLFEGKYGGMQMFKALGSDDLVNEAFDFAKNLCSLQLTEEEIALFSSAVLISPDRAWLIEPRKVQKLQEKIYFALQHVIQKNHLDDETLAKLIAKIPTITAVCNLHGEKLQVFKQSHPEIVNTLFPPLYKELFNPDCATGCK
# UniProt P10827: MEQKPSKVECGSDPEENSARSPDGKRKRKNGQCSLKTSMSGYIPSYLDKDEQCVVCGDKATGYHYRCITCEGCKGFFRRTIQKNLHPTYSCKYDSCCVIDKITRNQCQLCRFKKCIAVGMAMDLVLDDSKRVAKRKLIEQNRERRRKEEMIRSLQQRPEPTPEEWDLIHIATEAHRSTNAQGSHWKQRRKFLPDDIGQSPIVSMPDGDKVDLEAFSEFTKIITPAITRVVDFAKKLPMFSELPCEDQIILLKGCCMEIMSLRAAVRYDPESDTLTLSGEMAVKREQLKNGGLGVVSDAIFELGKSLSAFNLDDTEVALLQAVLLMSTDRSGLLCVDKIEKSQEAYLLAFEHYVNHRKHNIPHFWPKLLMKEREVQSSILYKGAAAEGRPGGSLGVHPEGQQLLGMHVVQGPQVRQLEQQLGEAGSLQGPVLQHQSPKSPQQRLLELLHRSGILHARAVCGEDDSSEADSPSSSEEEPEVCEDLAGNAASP
# UniProt P11473: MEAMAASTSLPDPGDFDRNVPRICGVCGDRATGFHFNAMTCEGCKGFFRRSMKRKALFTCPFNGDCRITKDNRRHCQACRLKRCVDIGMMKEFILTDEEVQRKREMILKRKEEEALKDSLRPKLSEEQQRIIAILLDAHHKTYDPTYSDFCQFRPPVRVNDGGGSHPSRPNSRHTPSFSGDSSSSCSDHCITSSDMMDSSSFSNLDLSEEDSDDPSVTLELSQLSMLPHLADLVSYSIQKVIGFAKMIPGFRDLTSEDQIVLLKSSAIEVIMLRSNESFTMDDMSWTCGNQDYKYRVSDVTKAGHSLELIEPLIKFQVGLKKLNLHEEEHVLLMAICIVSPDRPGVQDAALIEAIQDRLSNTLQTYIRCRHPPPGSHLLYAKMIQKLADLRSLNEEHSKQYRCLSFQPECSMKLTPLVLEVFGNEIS
# UniProt P51449: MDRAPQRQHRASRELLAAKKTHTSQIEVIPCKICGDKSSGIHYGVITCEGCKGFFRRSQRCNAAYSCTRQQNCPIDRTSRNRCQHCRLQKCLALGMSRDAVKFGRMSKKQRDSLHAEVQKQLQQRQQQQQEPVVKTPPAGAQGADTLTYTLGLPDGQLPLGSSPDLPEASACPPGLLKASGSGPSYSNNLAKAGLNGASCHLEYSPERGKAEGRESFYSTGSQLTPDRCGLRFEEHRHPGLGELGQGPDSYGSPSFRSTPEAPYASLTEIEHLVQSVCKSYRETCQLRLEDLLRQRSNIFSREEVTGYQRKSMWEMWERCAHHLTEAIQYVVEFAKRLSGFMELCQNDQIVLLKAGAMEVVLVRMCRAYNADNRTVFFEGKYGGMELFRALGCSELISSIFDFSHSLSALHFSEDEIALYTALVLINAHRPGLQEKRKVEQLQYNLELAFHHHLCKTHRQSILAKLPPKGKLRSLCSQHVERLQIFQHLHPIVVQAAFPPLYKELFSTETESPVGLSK
# UniProt P19793: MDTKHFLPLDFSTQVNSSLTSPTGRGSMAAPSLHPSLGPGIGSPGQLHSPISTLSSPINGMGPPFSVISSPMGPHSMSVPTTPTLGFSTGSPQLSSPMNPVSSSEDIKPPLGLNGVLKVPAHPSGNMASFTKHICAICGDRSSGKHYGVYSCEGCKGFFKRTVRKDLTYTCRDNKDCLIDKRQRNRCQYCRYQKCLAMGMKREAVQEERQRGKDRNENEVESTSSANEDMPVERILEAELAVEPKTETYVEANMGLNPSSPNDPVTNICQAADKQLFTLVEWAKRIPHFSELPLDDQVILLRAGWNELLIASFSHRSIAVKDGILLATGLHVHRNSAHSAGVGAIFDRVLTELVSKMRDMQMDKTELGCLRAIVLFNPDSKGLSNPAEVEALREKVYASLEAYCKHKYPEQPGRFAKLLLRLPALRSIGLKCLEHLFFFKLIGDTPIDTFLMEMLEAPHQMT
# UniProt P28702: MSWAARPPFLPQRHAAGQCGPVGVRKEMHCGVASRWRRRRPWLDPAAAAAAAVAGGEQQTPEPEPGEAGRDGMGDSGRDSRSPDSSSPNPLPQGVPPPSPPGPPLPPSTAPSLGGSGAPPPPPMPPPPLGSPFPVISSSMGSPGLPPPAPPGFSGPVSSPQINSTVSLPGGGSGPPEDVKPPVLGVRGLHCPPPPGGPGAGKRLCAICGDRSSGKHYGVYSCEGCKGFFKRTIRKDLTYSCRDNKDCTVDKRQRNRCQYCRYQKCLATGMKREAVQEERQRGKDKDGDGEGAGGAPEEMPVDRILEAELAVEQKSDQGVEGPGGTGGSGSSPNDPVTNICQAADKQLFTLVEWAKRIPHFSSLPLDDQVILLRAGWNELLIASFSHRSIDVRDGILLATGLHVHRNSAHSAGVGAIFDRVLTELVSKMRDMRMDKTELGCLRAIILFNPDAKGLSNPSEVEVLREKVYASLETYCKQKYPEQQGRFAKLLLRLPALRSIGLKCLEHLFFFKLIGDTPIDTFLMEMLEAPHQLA
# UniProt P11511: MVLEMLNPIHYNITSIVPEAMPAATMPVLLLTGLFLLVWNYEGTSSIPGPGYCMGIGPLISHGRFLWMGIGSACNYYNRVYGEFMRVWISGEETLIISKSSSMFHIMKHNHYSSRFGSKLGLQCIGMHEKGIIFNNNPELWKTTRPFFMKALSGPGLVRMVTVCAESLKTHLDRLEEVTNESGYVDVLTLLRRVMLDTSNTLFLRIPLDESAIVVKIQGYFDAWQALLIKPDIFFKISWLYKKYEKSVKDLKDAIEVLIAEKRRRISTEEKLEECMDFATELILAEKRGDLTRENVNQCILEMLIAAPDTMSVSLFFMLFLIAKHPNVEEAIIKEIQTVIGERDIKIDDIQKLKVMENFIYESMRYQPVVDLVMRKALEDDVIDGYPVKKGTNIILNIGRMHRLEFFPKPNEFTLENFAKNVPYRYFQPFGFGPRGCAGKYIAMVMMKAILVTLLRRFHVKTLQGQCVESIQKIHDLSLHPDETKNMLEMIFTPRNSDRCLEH
# UniProt P08684, whole entry, looked up: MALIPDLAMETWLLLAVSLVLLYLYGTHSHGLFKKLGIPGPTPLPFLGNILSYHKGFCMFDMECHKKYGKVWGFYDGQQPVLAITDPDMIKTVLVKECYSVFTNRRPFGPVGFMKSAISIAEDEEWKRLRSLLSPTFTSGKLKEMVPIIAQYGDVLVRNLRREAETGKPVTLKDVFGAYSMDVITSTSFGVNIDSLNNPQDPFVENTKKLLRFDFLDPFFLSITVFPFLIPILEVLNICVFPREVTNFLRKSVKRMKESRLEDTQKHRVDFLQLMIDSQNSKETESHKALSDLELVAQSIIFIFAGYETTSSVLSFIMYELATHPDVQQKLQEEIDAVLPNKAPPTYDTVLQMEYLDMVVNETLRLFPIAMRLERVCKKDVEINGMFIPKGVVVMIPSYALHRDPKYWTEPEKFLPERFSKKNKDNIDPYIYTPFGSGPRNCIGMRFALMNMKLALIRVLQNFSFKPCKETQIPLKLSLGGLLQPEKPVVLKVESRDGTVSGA
# UniProt P04798: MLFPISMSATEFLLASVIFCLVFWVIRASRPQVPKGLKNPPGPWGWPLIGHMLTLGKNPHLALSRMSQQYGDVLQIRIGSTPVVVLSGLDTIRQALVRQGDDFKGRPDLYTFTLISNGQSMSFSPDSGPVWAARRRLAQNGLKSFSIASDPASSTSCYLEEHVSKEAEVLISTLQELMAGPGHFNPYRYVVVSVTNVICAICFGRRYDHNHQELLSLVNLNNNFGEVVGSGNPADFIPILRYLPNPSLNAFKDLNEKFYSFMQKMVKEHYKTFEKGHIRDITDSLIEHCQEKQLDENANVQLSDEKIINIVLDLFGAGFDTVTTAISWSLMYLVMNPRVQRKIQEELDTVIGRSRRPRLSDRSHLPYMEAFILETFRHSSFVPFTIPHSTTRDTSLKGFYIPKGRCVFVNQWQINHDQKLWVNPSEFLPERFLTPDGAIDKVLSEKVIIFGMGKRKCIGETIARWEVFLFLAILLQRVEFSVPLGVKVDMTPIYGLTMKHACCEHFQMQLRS
# The inconclusive results got no clear call from the source; some entries with a clear call stand among them for comparison. For part of these data: A potency beside an inconclusive call is a rough fit, not a confirmed value. Activity calls are given as the source filed them. Rule for the calls: active = hit-call score of the fitted dose curve at least 0.9, where 1 is the maximum; inconclusive = response in the unintended direction; inactive = score below 0.9.
# Assays:
# [1] = target: Retinoic acid receptor alpha (Homo sapiens) (UniProt P10276); experiment: ATG_RARa_TRANS: Attagene TRANS-FACTORIAL HepG2 Assay for human Retinoic Acid Receptor alpha (RARa) (AID 2283005);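 for AC50: potency for increased reporter signal meaning RARa activation over DMSO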
# Procedure, shortened: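 HepG2 transiently transfected with multiplex GAL4-UAS reporter units including a human RARa–GAL4 chimera; 24 h compound exposure. Reporter mRNA quantified by RT-PCR, 6-FAM labeling and capillary electrophoresis; gain of signal versus DMSO.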
# [2] = target: human Retinoic Acid Receptor gamma (RARg), RARG (gene 5916) (UniProt P13631); experiment: ATG_RARg_TRANS: Attagene TRANS-FACTORIAL HepG2 Assay for human Retinoic Acid Receptor gamma (RARg) (AID 2283009);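 for AC50: AC50 is for reporter induction above DMSO meaning RARg activation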
# Procedure, shortened: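 HepG2, RARg-GAL4 TRANS system, 24 h exposure; reporter mRNA by RT-PCR + CE fluorescence; increase over DMSO.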
# [3] = target: human RAR-related Orphan Receptor beta (RORb), RORB (gene 6096) (UniProt Q92753); experiment: ATG_RORb_TRANS: Attagene TRANS-FACTORIAL HepG2 Assay for human RAR-related Orphan Receptor beta (RORb) (AID 2283010);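 for AC50: potency for increased reporter mRNA meaning activation of RORb-Gal4 chimera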
# Procedure, shortened: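 In this TRANS-format test, human HepG2 cells express chimeric NR-Gal4 fusion proteins driving GAL4-UAS reporters. After 24 h dosing, reporter transcripts are measured by fluorescent RT-PCR/capillary electrophoresis, with DMSO as negative control.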
# [4] = target: human Thyroid Receptor alpha (THRa1), THRA (gene 7067) (UniProt P10827); experiment: ATG_THRa1_TRANS: Attagene TRANS-FACTORIAL HepG2 Assay for human Thyroid Receptor alpha (THRa1) (AID 2283014)
# Procedure, shortened: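 HepG2 cells transiently transfected with chimeric NR-Gal4 and GAL4-UAS reporter units, dosed 24 h. Reporter mRNA quantified by RT-PCR, fluorescent labeling, HpaI digestion and capillary electrophoresis; gain-of-signal fit versus DMSO.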
# [5] = target: human Vitamin D Receptor (VDR), VDR (gene 7421) (UniProt P11473); experiment: ATG_VDR_TRANS: Attagene TRANS-FACTORIAL HepG2 Assay for human Vitamin D Receptor (VDR) (AID 2283022)
# Procedure, shortened: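 HepG2 cells were transiently transfected with GAL4-UAS reporter units and a chimeric VDR-Gal4 construct, then dosed for 24 hours. Reporter mRNA was quantified by RT-PCR, fluorescent labeling, HpaI digestion and capillary electrophoresis; gain of signal analysed vs DMSO.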
# [6] = target: human RAR-related Orphan Receptor gamma (RORg), RORC (gene 6097) (UniProt P51449); experiment: ATG_RORg_TRANS: Attagene TRANS-FACTORIAL HepG2 Assay for human RAR-related Orphan Receptor gamma (RORg) (AID 2283011);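 for AC50: potency for induction of reporter transcripts above DMSO so activators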
# Procedure, shortened: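 HepG2 cells transiently transfected with GAL4-UAS reporter units and chimeric RORg-Gal4 construct; after 24 h chemical exposure, reporter mRNA measured by RT-PCR with fluorescent capillary electrophoresis, gain of signal fitted against DMSO.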
# [7] = target: Retinoic acid receptor RXR-alpha (Homo sapiens) (UniProt P19793); experiment: ATG_RXRa_TRANS: Attagene TRANS-FACTORIAL HepG2 Assay for human Retinoid X Receptor alpha (RXRa) (AID 2283012)
# Procedure, shortened: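 Cells (HepG2) carried transiently transfected GAL4-responsive reporter units. Following a 24 h chemical incubation, reporter mRNA induction was read via RT-PCR fragment analysis; DMSO served as negative control and baseline.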
# [8] = target: human Retinoid X Receptor beta (RXRb), RXRB (gene 6257) (UniProt P28702); experiment: ATG_RXRb_TRANS: Attagene TRANS-FACTORIAL HepG2 Assay for human Retinoid X Receptor beta (RXRb) (AID 2283013)
# Procedure, shortened: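 Multiplexed TRANS reporter assay in HepG2; 24 h dosing; reporter mRNA by RT-PCR/CE fluorescence; gain-of-signal relative to DMSO.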
# [9] = target: Cytochrome P450 2C19 (Homo sapiens) (UniProt P33261); experiment: NVS_ADME_hCYP2C19: NovaScreen (NVS) CYP450-related Enzyme Activity (ADME) Assay for human CYP2C19 (AID 2283113);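 note: potency for inhibition seen as loss of fluorescent signal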
# Procedure, shortened: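 Cell-free recombinant human CYP2C19 from insect cells, fluorescent substrate; activity read by fluorescence intensity 1 h after dosing. Primary screen in duplicate at 10 uM; actives retested in concentration series. Signal loss versus acetonitrile negative control.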
# [10] = target: human CYP19A1, CYP19A1 (gene 1588) (UniProt P11511); experiment: NVS_ADME_hCYP19A1: NovaScreen (NVS) CYP450-related Enzyme Activity (ADME) Assay for human CYP19A1 (AID 2283098)
# Procedure, shortened: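 Recombinant enzyme in a cell-free format, read 0.5 h after dosing by fluorescence from a fluorogenic substrate. Loss of signal was fitted against acetonitrile as baseline. Primary screen in duplicate at 10 uM, actives then tested in concentration series.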
# [11] = target: Cytochrome P450 3A4 (Homo sapiens) (UniProt P08684); experiment: NVS_ADME_hCYP3A4: NovaScreen (NVS) CYP450-related Enzyme Activity (ADME) Assay for human CYP3A4 (AID 2283110)
# Procedure, shortened: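 Cell-free recombinant enzyme expressed in insect cells; fluorescent substrate turnover read after 0.33 h, acetonitrile as negative control. Primary screen in duplicate at 10 uM, actives then tested in concentration series.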
# [12] = target: human CYP1A1, CYP1A1 (gene 1543) (UniProt P04798); experiment: NVS_ADME_hCYP1A1: NovaScreen (NVS) CYP450-related Enzyme Activity (ADME) Assay for human CYP1A1 (AID 2283100)
# Procedure, shortened: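 Recombinant CYP1A1 with a fluorogenic substrate, cell-free, read 1 h after dosing; acetonitrile as negative control. Single-concentration screen at 10 uM in duplicate, then concentration-response up to 20 uM for chemicals meeting ~30% inhibition threshold.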
structure (smiles),measurement,setting,value
CCc1ccc(C(=O)NN(C(=O)c2cc(C)cc(C)c2)C(C)(C)C)cc1,outcome,[1],inactive
same,outcome,[2],inactive
same,outcome,[3],inactive
same,AC50,[4],inconclusive: 20.5 µM
same,AC50,[5],inconclusive: 11.9 µM
CCOC(=O)CCN(SN(C)C(=O)Oc1cccc2c1OC(C)(C)C2)C(C)C,AC50,[1],inconclusive: 22.5 µM
same,AC50,[2],inconclusive: 158 µM
same,AC50,[6],inconclusive: 100 µM
same,outcome,[7],inactive
same,AC50,[8],active: 37.8 µM
same,AC50,[4],inconclusive: 100 µM
same,AC50,[9],active: 3.01 µM
N#CC(CCc1ccc(Cl)cc1)(Cn1cncn1)c1ccccc1 (stereo not drawn),outcome,[1],inactive
same,outcome,[2],inactive
same,AC50,[3],inconclusive: 16.9 µM
same,AC50,[4],inconclusive: 0.658 µM
same,AC50,[5],inconclusive: 0.00436 µM
same,outcome,[10],inactive
same,AC50,[11],active: 4.35 µM
OCCOc1ccccc1,outcome,[1],inactive
same,outcome,[2],inactive
same,outcome,[6],inactive
same,AC50,[9],inconclusive: 1.98 µM
Cc1[nH]c(=O)n(C(C)(C)C)c(=O)c1Cl,outcome,[1],inactive
same,AC50,[3],inconclusive: 0.0129 µM
same,outcome,[6],inactive
same,AC50,[7],inconclusive: 50 µM
same,AC50,[8],inconclusive: 50 µM
same,outcome,[4],inactive
Cc1ccccc1CCl,AC50,[1],inconclusive: 100 µM
same,AC50,[2],inconclusive: 100 µM
same,outcome,[8],inactive
same,AC50,[4],inconclusive: 100 µM
same,AC50,[5],inconclusive: 48.6 µM
COCCl,AC50,[1],inconclusive: 35 µM
same,AC50,[2],inconclusive: 35 µM
same,outcome,[6],inactive
same,AC50,[8],inconclusive: 35 µM
same,outcome,[4],inactive
CNC(=O)Oc1cccc(N=CN(C)C)c1,outcome,[1],inactive
same,AC50,[2],inconclusive: 0.353 µM
same,AC50,[6],inconclusive: 91.8 µM
same,outcome,[8],inactive
same,AC50,[5],inconclusive: 50 µM
Fc1ccc(C2(Cn3cncn3)OC2c2ccccc2Cl)cc1 (stereo not drawn),AC50,[1],inconclusive: 100 µM
same,AC50,[3],inconclusive: 28.6 µM
same,AC50,[6],inconclusive: 100 µM
same,AC50,[8],inconclusive: 100 µM
same,AC50,[4],inconclusive: 0.149 µM
same,AC50,[12],inconclusive: 10 µM
C=C(C)C(=O)OCCCCOC(=O)C(=C)C,AC50,[1],inconclusive: 181 µM
same,outcome,[2],inactive
same,AC50,[6],inconclusive: 182 µM
same,outcome,[8],inactive
same,AC50,[4],inconclusive: 100 µM
c1ccc2c(c1)-c1cccc3cccc-2c13,outcome,[1],inactive
same,outcome,[3],inactive
COP(N)(=O)SC (stereo not drawn),outcome,[1],inactive
same,outcome,[2],inactive
same,outcome,[6],inactive
same,AC50,[4],inconclusive: 50 µM
same,AC50,[5],inconclusive: 50 µM
C=C(C)C(=O)OCC(CC)CCCC (stereo not drawn),AC50,[1],inconclusive: 182 µM
same,AC50,[3],inconclusive: 166 µM
same,AC50,[6],inconclusive: 100 µM
same,outcome,[8],inactive
same,outcome,[4],inactive

# Two records drawn at random from those above, as already listed:
structure (smiles),measurement,setting,value
OCCOc1ccccc1,outcome,[2],inactive
COCCl,AC50,[1],inconclusive: 35 µM
